This is an account of results in the supplement of paper PMC12578635.

Each structure is given as a SMILES string. The list shows a part of the results. No stated cut-off is given here; in the data, active = 150% or more and inactive = the rest. Most values come without repeats; read them as rough.

The assay has as its system Staphylococcus aureus JE2-lux inside RAW 264.7 macrophages. The assay is described as follows: intracellular bacterial bioluminescence relative to DMSO vehicle; higher = higher intracellular bacterial metabolic activity. The following applies: 10 µM; treatment time 4 h; gentamicin 50 µg/ml. The method, then: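 RAW 264.7 macrophages infected with bioluminescent MRSA JE2-lux (MOI 100) were dispensed into 384-well plates with 10 µM compound in the presence of 50 µg/ml gentamicin. After 4 h at 37 °C, bacterial bioluminescence (a proxy for intracellular bacterial metabolic activity) and host cell viability (CellTiter-Fluor) were read and normalised to 0.1% DMSO vehicle controls. Single-pass screen of the UNC CICBDD kinase-targeted library (>4,700 compounds).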
For `COC(=O)C1=C(N)Oc2cc(C)n(Cc3ccccc3)c(=O)c2C12C(=O)N(C)c1ccccc12` (stereo not given), the intracellular bacterial bioluminescence was inactive: 87.5%.
Regarding `O=C(C(=O)N1CCC2(CC1)OCCO2)c1c[nH]c2ccccc12`, the intracellular bacterial bioluminescence is inactive: 107%.
For `CCCCn1c(=S)[nH]c(O)c(C2=NN(C(C)=O)C(c3ccc4c(c3)OCO4)C2)c1=O` (stereo not given), the intracellular bacterial bioluminescence is inactive: 97.5%.
The result for `CCC(=O)N1N=C(c2c(O)[nH]c(=S)n(C)c2=O)CC1c1cc(OC)ccc1OC` (stereo not given) reads inactive: 74.4%.
The result for `COC(=O)c1ccc(C(=O)OC)c(NC(=O)c2cccn(Cc3ccc(C)cc3)c2=O)c1` reads inactive: 103%.
As to `O=C1NC(=S)NC(=O)C1=Cc1ccc(-c2cc(Cl)ccc2Cl)o1`, the intracellular bacterial bioluminescence was inactive: 23.5%.
The result for `CCC(=O)N1N=C(c2c(O)n(C)c(=S)n(C)c2=O)CC1c1ccc(N(CC)CC)cc1` (stereo not given) reads inactive: 96.3%; that for `CN(CCC#N)c1ccc(C=C2C(=O)NC(=S)NC2=O)cc1`, inactive: 118%.
Then `O=C(c1cccnc1)N1Cc2ccccc2-n2cccc2C1c1cc(F)cc(F)c1` (stereo not given), with inactive: 82.1%; and `O=C(c1ncoc1-c1ccc(F)cc1)N1CC2CC(C1)c1cccc(=O)n1C2` (stereo not given), with inactive: 108%; and `O=C1NC(=S)NC(=O)C1=CNc1ccc(Cl)cc1C(=O)c1ccccc1`, with inactive: 89.2%.
`Cc1nc2nc(-c3ccc(C(C)(C)C)cc3)nn2c(C)c1CC(=O)N1CCN(CCO)CC1`: the intracellular bacterial bioluminescence is inactive: 110%.
The result for `O=C(Nc1ccncc1)c1cccn(Cc2ccccc2F)c1=O` reads inactive: 49%; that for `CC1Oc2ccc(S(=O)(=O)N3CC4CC(C3)c3cccc(=O)n3C4)cc2NC1=O` (stereo not given), inactive: 88.2%.
Then `Cc1ccc(-c2ccc(C=C3C(=O)NC(=O)NC3=O)o2)cc1`, with inactive: 78.5%; and `COc1ccc(OC)c(N2C(=O)NC(=O)/C(=C\c3ccco3)C2=O)c1`, with inactive: 109%; and `COc1ccc(C=C2C(=O)NC(=O)NC2=O)cc1OC`, with inactive: 101%.
Then `CC(=O)c1cccc(NC(=O)N2CCC3(CC2)OCCO3)c1`, with inactive: 98%.
`O=C1NC(=O)C(=CNc2ccccc2C(=O)c2ccccc2)C(=O)N1`: the intracellular bacterial bioluminescence is inactive: 105%.
The result for `CC(=O)N1N=C(c2c(O)n(C)c(=S)n(C)c2=O)CC1c1ccc(C(C)C)cc1` (stereo not given) reads inactive: 94.2%; that for `CC(=O)C1(c2ccccc2)CCN(C(=O)c2ncoc2-c2ccc(F)cc2)CC1`, inactive: 122%.
Consider `O=C(c1ccccc1)c1cc(Cl)ccc1NC(=O)c1coc2ccccc2c1=O`, for which the intracellular bacterial bioluminescence is inactive: 111%.
Take `Cc1nnc(N2CCNCC2)c2nn(-c3ccccc3)c(C)c12`: the intracellular bacterial bioluminescence is inactive: 93.5%.
For the compound `CCCCn1c(=S)[nH]c(O)c(C2=NN(C(=O)CC)C(c3ccc(N(CC)CC)cc3)C2)c1=O` (stereo not given), the intracellular bacterial bioluminescence was inactive: 107%.
On to `Cc1ccc(N2C(=O)NC(=O)/C(=C/c3cn(C)c4ccccc34)C2=O)cc1`, for which the intracellular bacterial bioluminescence is inactive: 112%.
On to `CCS(=O)(=O)c1cccc(C(=O)Nc2ccc(Cl)cc2C(=O)c2ccccc2)c1`, for which the intracellular bacterial bioluminescence was inactive: 104%.
On to `Cc1cc(O)c(C(=O)Nc2cccc(Cl)c2)c(=O)n1CC1CCCO1` (stereo not given), for which the intracellular bacterial bioluminescence is inactive: 120%.
Then `O=C1NC(=O)C(=Cc2ccc(-c3cccc([N+](=O)[O-])c3)o2)C(=O)N1`, with inactive: 50.5%.
Regarding `Cc1ccccc1-c1ncccc1C(=O)N1CCC(C(=O)N2CCC3(CC2)OCCO3)CC1`, the intracellular bacterial bioluminescence is inactive: 84.9%.
`O=C1CN=C(c2ccc(F)cc2)c2cc(F)ccc2N1`: the intracellular bacterial bioluminescence is inactive: 94.9%.
The result for `COC(=O)C1=C(N)Oc2cc(C)n(CC3CCCO3)c(=O)c2C12C(=O)Nc1ccccc12` (stereo not given) reads inactive: 118%; that for `O=C1NC(=S)NC(=O)C1=Cc1nc(-c2ccc(Cl)cc2)n2ccccc12`, inactive: 82.1%; that for `Nc1c(C(=O)OC2CCCCC2)c2nc3ccccc3nc2n1Cc1ccco1`, inactive: 15.9%.
The result for `Cn1cnc([N+](=O)[O-])c1Sc1ccc([N+](=O)[O-])cc1` reads inactive: 46.8%.
Then `O=C1NC(=O)C(=Cc2nc(-c3ccccc3Cl)n3ccccc23)C(=O)N1`, with inactive: 81.8%; and `CC1=CC(=C2C(=O)NC(=S)NC2=O)C=C(C)N1Cc1ccco1`, with inactive: 91.6%.
For `O=C1NC(=O)C(=NNc2ccc(OC(F)F)cc2)C(=O)N1`, the intracellular bacterial bioluminescence was inactive: 106%.
As to `CC(C)OCCCn1c(N)c(C(=O)OCC2CCCO2)c2nc3ccccc3nc21` (stereo not given), the intracellular bacterial bioluminescence was inactive: 47.1%.
Then `CS(=O)(=O)c1ccccc1C(=O)Nc1ccc(Cl)cc1C(=O)c1ccccc1Cl`, with inactive: 87.1%; and `CC1C(C#N)=C(N)Oc2c1c(=O)oc1ccccc21` (stereo not given), with inactive: 139%.
